Experimental data: publication PMC10933653
No constants are given. Whether binding was seen depends on the method and setting. In cells and extracts the contact can be indirect. Some results given as binding are weak or reduced against the parent protein; the word gives no strength. For part of these data: Where a sequence is shown, tags or fusion partners need not be part of it. One block for each binder: values may come before it.

Sequences of proteins named here, by UniProt entry; tags and fusion partners are left off. Residues count along the entry.
UniProt P25445, residues 26-335: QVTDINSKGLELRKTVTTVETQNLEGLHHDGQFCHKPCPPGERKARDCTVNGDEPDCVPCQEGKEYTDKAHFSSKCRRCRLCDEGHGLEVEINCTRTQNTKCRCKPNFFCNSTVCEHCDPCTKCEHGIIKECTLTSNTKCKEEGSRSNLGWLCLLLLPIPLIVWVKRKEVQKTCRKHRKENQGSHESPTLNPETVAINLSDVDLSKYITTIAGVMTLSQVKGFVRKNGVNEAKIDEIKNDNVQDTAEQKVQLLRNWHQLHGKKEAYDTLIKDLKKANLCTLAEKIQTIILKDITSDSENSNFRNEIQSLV

Key:
[1] = target: T1, Flag-tagged PIR (Pirin) (human) (UniProt O00625); assay: co-IP; Flag-PIR and HA-RELB transiently expressed in HEK293T cells; IP with anti-Flag agarose, Flag-PIR and HA-RELB detected in the precipitates
T1 sequence: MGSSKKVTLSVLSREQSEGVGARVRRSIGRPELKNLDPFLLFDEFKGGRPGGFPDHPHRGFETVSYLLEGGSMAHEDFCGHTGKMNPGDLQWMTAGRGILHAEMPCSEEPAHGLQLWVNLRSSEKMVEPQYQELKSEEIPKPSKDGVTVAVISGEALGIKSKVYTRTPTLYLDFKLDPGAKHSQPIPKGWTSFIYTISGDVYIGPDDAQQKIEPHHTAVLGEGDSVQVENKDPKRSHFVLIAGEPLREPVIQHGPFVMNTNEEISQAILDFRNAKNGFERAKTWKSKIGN

[2] = target: T2, PIR (Pirin), endogenous in HCT116 cells (human (endogenous in HCT116)) (UniProt O00625); assay: co-IP; endogenous proteins in HCT116 cells; precipitating antibody not stated
T2 sequence: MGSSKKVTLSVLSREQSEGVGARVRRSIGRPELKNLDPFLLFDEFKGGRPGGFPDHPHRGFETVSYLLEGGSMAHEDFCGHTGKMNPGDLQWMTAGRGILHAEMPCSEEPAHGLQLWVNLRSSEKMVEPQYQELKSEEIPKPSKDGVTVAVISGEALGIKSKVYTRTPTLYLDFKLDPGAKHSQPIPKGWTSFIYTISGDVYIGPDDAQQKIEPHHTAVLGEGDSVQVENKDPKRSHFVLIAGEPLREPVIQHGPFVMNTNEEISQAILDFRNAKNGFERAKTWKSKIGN

HA-tagged FAS (human) = HA-tagged FAS (human) (UniProt P25445); assay: co-IP; HA-tagged protein transiently expressed in HCT116 cells; IP with anti-HA; E2F1 detected as a negative control

binding [1]: binds
B1: HA-tagged RELB (protein, UniProt Q01201 1-579)
chain: MLRSGPASGPSVPTGRAMPSRRVARPPAAPELGALGSPDLSSLSLAVSRSTDELEIIDEYIKENGFGLDGGQPGPGEGLPRLVSRGAASLSTVTLGPVAPPATPPPWGCPLGRLVSPAPGPGPQPHLVITEQPKQRGMRFRYECEGRSAGSILGESSTEASKTLPAIELRDCGGLREVEVTACLVWKDWPHRVHPHSLVGKDCTDGICRVRLRPHVSPRHSFNNLGIQCVRKKEIEAAIERKIQLGIDPYNAGSLKNHQEVDMNVVRICFQASYRDQQGQMRRMDPVLSEPVYDKKSTNTSELRICRINKESGPCTGGEELYLLCDKVQKEDISVVFSRASWEGRADFSQADVHRQIAIVFKTPPYEDLEIVEPVTVNVFLQRLTDGVCSEPLPFTYLPRDHDSYGVDKKRKRGMPDVLGELNSSDPHGIESKRRKKKPAILDHFLPNHGSGPFLPPSALLPDPDFFSGTVSLPGLEPPGGPDLLDDGFAYDPTAPTLFTMLDLLPPAPPHASAVVCSGGAGAVVGETPGPEPLTLDSYQAPGPGDGGTASLVGSNMFPNHYREAAFGGGLLSPGPEAT

binding [2]: binds
B2: RELB, endogenous in HCT116 cells (protein, UniProt Q01201 1-579)
chain: MLRSGPASGPSVPTGRAMPSRRVARPPAAPELGALGSPDLSSLSLAVSRSTDELEIIDEYIKENGFGLDGGQPGPGEGLPRLVSRGAASLSTVTLGPVAPPATPPPWGCPLGRLVSPAPGPGPQPHLVITEQPKQRGMRFRYECEGRSAGSILGESSTEASKTLPAIELRDCGGLREVEVTACLVWKDWPHRVHPHSLVGKDCTDGICRVRLRPHVSPRHSFNNLGIQCVRKKEIEAAIERKIQLGIDPYNAGSLKNHQEVDMNVVRICFQASYRDQQGQMRRMDPVLSEPVYDKKSTNTSELRICRINKESGPCTGGEELYLLCDKVQKEDISVVFSRASWEGRADFSQADVHRQIAIVFKTPPYEDLEIVEPVTVNVFLQRLTDGVCSEPLPFTYLPRDHDSYGVDKKRKRGMPDVLGELNSSDPHGIESKRRKKKPAILDHFLPNHGSGPFLPPSALLPDPDFFSGTVSLPGLEPPGGPDLLDDGFAYDPTAPTLFTMLDLLPPAPPHASAVVCSGGAGAVVGETPGPEPLTLDSYQAPGPGDGGTASLVGSNMFPNHYREAAFGGGLLSPGPEAT

binding (HA-tagged FAS (human)): binds
B3: PIR (Pirin), endogenous in HCT116 cells (protein, UniProt O00625 1-290)
chain: MGSSKKVTLSVLSREQSEGVGARVRRSIGRPELKNLDPFLLFDEFKGGRPGGFPDHPHRGFETVSYLLEGGSMAHEDFCGHTGKMNPGDLQWMTAGRGILHAEMPCSEEPAHGLQLWVNLRSSEKMVEPQYQELKSEEIPKPSKDGVTVAVISGEALGIKSKVYTRTPTLYLDFKLDPGAKHSQPIPKGWTSFIYTISGDVYIGPDDAQQKIEPHHTAVLGEGDSVQVENKDPKRSHFVLIAGEPLREPVIQHGPFVMNTNEEISQAILDFRNAKNGFERAKTWKSKIGN
